Patent US6979471B1, “Composition comprising pharmaceutical/nutraceutical agent and a bio-enhancer obtained from Glycyrrhiza glabra” (Council of Scientific and Industrial Research, priority 2000, dated 2005)
Some results were stated once for a whole list of compounds, not compound by compound. Some compounds share one range, which may span the group rather than tell each member.

Test: Bioavailability test through biological membrane (U-tube, OD in receiving tube)
Settings: with glycyrrhizin; mammalian gut membrane and artificial membrane

CO[C@H]1/C=C/O[C@@]2(C)Oc3c(C)c(O)c4c(O)c(c(/C=N/N5CCN(C)CC5)c(O)c4c3C2=O)NC(=O)/C(C)=C\C=C\[C@H](C)[C@H](O)[C@@H](C)[C@@H](O)[C@@H](C)[C@H](OC(C)=O)[C@@H]1C [Rifampicin]
Enhancement in transport by glycyrrhizin across the gut as well as artificial membrane: 2 to 6 folds

CC1(C)S[C@@H]2[C@H](NC(=O)[C@H](N)c3ccccc3)C(=O)N2[C@H]1C(=O)O [Ampicillin]
Enhancement in transport by glycyrrhizin across the gut as well as artificial membrane: 2 to 6 folds
